Source: publication PMC11519634
Changes are numbered by the printed parent chain. No constants are given. Whether binding was seen depends on the method and setting. Binding seen in cells or lysates may run through a third protein. Some results given as binding are weak or reduced against the parent protein; the word gives no strength. For some of these results: Where a sequence is shown, tags or fusion partners need not be part of it.

Chains of the proteins cited; added tags and fusions are not shown.
UniProt Q93008: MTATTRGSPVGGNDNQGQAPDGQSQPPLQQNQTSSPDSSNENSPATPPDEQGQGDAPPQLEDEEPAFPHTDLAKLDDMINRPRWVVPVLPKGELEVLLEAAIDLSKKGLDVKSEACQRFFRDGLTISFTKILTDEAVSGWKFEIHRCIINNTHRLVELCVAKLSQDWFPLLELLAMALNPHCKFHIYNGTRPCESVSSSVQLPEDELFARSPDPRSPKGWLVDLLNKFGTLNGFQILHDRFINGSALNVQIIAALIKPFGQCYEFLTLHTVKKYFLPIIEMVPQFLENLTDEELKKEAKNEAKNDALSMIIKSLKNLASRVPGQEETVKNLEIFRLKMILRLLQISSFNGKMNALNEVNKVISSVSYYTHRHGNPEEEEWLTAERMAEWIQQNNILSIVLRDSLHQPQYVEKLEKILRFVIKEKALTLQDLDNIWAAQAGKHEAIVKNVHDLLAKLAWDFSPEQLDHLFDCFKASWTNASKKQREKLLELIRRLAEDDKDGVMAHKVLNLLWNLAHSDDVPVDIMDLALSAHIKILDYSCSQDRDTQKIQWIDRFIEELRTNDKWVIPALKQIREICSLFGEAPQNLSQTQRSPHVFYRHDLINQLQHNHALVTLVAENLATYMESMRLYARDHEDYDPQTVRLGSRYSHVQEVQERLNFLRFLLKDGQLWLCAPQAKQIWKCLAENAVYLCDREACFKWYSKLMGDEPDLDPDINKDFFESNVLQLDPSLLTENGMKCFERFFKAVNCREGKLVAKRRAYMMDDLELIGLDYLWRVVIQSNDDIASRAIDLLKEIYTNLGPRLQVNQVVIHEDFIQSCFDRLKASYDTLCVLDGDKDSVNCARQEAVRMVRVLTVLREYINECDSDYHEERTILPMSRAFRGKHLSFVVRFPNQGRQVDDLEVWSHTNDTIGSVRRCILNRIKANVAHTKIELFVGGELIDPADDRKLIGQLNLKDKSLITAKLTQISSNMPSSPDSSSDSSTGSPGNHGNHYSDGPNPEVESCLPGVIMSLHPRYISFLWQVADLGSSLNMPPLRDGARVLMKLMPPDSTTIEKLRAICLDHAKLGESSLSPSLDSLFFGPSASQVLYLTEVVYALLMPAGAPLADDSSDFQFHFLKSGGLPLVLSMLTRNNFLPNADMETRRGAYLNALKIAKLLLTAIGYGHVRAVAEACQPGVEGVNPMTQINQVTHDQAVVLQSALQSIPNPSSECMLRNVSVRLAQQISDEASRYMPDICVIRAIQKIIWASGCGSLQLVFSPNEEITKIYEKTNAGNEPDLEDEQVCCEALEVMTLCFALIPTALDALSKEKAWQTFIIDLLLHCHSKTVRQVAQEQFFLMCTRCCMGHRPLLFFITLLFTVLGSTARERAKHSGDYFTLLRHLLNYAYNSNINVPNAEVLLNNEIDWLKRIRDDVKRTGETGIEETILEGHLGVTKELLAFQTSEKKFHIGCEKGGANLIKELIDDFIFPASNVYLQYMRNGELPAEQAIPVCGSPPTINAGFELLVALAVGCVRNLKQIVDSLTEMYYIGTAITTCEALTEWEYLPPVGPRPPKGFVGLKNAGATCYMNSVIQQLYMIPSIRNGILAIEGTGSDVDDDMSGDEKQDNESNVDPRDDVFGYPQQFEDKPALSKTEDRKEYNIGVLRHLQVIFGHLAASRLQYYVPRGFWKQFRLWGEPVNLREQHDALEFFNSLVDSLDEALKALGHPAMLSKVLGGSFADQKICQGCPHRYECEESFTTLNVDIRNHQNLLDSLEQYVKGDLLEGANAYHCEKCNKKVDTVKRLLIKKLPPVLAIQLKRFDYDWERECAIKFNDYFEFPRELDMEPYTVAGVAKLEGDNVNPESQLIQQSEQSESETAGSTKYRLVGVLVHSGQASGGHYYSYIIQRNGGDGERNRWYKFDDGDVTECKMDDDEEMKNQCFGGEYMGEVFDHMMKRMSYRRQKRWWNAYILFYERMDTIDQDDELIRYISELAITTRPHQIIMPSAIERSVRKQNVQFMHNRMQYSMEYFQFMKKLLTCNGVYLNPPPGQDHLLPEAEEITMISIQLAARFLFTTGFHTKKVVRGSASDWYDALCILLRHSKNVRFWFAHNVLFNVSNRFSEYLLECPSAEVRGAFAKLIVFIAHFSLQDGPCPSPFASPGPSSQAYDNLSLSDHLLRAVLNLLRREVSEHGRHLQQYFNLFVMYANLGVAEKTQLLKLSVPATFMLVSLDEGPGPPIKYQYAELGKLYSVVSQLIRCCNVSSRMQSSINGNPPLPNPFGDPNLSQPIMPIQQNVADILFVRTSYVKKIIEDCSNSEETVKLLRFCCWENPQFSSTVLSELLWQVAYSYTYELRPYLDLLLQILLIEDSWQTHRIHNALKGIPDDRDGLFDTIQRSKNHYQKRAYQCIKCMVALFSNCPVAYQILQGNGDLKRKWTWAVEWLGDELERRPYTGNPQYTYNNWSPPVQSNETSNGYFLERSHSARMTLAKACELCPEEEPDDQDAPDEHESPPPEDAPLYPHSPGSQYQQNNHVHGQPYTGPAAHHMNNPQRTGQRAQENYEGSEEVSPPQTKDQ

How the values were obtained:
[1] = biological target: T1, ETS proto-oncogene 1 (Ets-1) (human (endogenous in HCC827OR)) (UniProt P14921); assay: co-IP; endogenous proteins in HCC827OR cells treated with/without xanthohumol for 24 h, then MG132 for 6 h; IP lysis buffer, 1 μg antibody and protein A agarose beads, 4 °C for 24 h; immunoblotting
T1 sequence: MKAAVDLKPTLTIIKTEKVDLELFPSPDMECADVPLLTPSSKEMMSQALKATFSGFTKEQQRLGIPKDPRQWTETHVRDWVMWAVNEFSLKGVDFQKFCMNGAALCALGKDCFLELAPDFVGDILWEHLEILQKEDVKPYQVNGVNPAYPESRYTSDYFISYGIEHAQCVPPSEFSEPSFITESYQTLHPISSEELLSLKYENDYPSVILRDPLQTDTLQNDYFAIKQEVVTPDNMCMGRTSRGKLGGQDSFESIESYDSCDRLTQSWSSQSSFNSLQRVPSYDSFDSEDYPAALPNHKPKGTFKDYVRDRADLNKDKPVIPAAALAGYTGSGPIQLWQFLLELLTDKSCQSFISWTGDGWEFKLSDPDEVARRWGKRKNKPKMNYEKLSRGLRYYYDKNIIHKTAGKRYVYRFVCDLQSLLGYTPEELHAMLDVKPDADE

[2] = biological target: T2, Flag-Ets-1 T38D (UniProt P14921); assay: co-IP; Flag-Ets-1 WT, T38A or T38D transfected into HCC827OR cells for 24 h, xanthohumol (3 μM) for 24 h, then MG132 for 6 h; endogenous USP9X; IP lysis buffer, 1 μg antibody and protein A agarose beads, 4 °C for 24 h; immunoblotting
T2 sequence: T1 sequence with T38D

[3] = biological target: T3, Flag-Ets-1 T38A (UniProt P14921); assay: as above
T3 sequence: T1 sequence with T38A

[4] = biological target: T4, Flag-Ets-1 WT (UniProt P14921); assay: as above
T4 sequence: T1 sequence

Measured: binding

USP9X (from UniProt Q93008 1-2554) (enzyme)
binds: all assays above
